Test results from the supplement of paper PMC3334620.
In all, about 33,000 sequences were measured (“E-score (-0.5 to 0.5)”: median about -0.015, highest 2% from about 0.3 on). The list shows a part of the results.

target: T1, Abf1 (UniProt P14164); experiment: PBM E-score (8-mer binding enrichment) (E-score (-0.5 to 0.5)); higher = stronger / more preferred TF binding; conditions: protein concentration: 200 nM; construct: GST-full length
T1 sequence: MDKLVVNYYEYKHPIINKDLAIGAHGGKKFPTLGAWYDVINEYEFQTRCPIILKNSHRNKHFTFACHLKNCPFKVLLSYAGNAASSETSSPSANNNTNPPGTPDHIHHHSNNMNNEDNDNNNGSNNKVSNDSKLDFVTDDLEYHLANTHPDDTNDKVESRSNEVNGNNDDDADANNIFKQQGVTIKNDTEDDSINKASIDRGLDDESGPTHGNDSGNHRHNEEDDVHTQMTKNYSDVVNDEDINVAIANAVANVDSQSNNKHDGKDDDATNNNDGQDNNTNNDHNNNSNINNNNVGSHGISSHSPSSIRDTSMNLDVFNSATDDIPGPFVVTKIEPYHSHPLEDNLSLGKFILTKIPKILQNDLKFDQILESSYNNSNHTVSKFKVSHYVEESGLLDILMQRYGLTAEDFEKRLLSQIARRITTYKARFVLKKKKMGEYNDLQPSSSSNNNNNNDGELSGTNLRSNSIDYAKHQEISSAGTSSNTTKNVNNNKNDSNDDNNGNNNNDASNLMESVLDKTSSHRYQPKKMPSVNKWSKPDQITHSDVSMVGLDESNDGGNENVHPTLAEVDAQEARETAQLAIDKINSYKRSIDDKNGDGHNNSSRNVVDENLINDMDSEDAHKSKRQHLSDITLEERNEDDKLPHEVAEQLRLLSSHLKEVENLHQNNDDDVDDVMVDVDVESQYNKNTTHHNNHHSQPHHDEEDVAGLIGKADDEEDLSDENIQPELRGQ
Summary of the method: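 Universal all-10-mer Agilent arrays, double-stranded by primer extension on fresh or once-stripped slides, were probed with about 100-200 nM GST-tagged yeast transcription factors made by PURExpress. Fluorescent anti-GST detected bound protein, and masliner normalised the scans. E-scores from the Universal PBM Analysis Suite were given to each ungapped eight-base word pooled with its reverse complement.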

Sequence	PBM E-score
CATTCGCA	-0.1
TCACCTAA	0.188
AGTTGGAA	-0.17
AATCGGTA	-0.0615
AATCGCGT	-0.0726
CTCCACTA	-0.0221
ATCAGTTC	-0.0785
AGATCCAG	-0.0713
GAGAGCTC	-0.305
ACTACGCG	0.0102
AGACCACA	-0.301
CCGAATCG	-0.0548
AGAAGAGC	-0.197
GAACTGGC	-0.13
AATTATGT	0.168
AAACGTCG	0.00886
CACCAGTA	-0.0692
GCAGTGGC	-0.119
AGAGACGA	0.153
CCGTGAGC	0.123
ACCGTTCC	0.141
ATAGGGGC	-0.271
AAACATAT	0.122
CGATCGTC	0.216
CAGCGTAA	-0.00124

Sequence	PBM E-score
CCACAGTC	-0.192
TCAACCGA	0.0347
CAGTATGG	-0.158
AAACTGGA	0.00973
CATTACAA	0.043
CGAAAAAC	0.156
GGATGCAA	-0.0772
GTTGTGGA	-0.176
AAGTGCCA	-0.105
CGAGCATA	0.0329
GTAACTGA	-0.042
CAAGGCTC	-0.13
CCCGTCCC	-0.163
AATCCCTG	-0.186
GCAGGGTA	-0.0134
TGGACACA	-0.0786
ATGAGGTG	0.139
AAGCCAGT	-0.108
AGTCGATG	0.0166
ACTGGAAC	-0.00138
TTTATAAA	0.29
ATCGCTCG	0.204
ACTACACT	0.0328
ACGATAAC	0.224
GAGGCAAA	-0.0198

Sequence	PBM E-score
AAGACGAG	-0.0454
CGATGATC	0.287
ATGTCACG	0.437
AGGGAGGC	-0.333
ACTCGCGG	0.0316
GTGGCCAC	0.15
AGCGTTGA	0.104
GACGGTGC	0.102
GAGGTTGA	-0.042
CGGTTAAA	-0.113
ACTGCATC	0.0268
CCTAGCGA	0.0769
ATTATAAA	0.0931
AAGCCCCG	-0.3
AATTTGAC	0.183
GACTCAGA	-0.145
CAGACCAC	-0.239
TACCGAGA	0.00246
GCAGAGAC	-0.219
GAGTACGC	0.128
TTGAGCAA	-0.199
AACCTTGG	-0.0513
CGCATTAA	0.137
CCTCCTGC	-0.253
ACCACCGA	-0.0146

Sequence	PBM E-score
CGACAAAA	0.241
CTGGACAA	0.0151
CAACCCAG	-0.148
TCCAGAGA	-0.145
CCGATACC	-0.101
TCAATAAA	0.0473
AGAGGACC	-0.254
CTTTTGGA	-0.0138
GGTTTTGA	0.066
GGTTCAGA	-0.111
AGTGCGAT	-0.00019
TCTGCCCA	-0.0147
ACCATCTC	-0.0694
CCCTCACA	-0.144
AAAGAACT	0.0334
GCATGGTA	-0.0541
CTTCACGA	0.2
AGTATCGC	0.0404
ATTCAGGA	-0.066
CCATATGA	0.0353
ATAGAGGC	-0.063
TATTCGCA	0.134
CGAACAAA	0.133
GTATCGAA	0.136
CTTTTCGA	-0.0876

Sequence	PBM E-score
ATCTCCTG	0.197
CCCACCGC	-0.25
GACCTCAA	-0.0678
CAGCGAAG	-0.223
TCTCTAAA	0.0546
GCGGCGCC	-0.00849
CAACCGAG	-0.0944
GCACGCCA	-0.243
ATTGTTCG	0.131
GCTCGAAA	-0.0348
GCGGGGCC	-0.0911
ACAGTCCG	-0.0014
ACCCTATG	0.0253
CGTATTAA	0.258
ACTCTCGA	-0.00599
AGCTAGGG	-0.309
CAGCCCAC	-0.111
AAAGCTGT	-0.0712
GCCAATAA	0.0249
CTTCTTAC	0.207
ACTAAGTC	0.142
TATAAAGA	0.0343
CCCGGCCC	-0.267
ACTATCGC	0.0846
AACCATCC	-0.129

Sequence	PBM E-score
AACCTACC	-0.137
AATACGAG	0.221
AATGAACG	-0.00352
CAGGCTCC	-0.169
AACAAAAT	0.0674
CCGCTCTA	-0.147
AGGAGGAC	-0.284
CGAACACC	-0.02
CATAGTTC	-0.00457
CTGGGGGA	-0.323
CAATGGGG	-0.195
AACCACGG	0.229
ATATAATC	0.126
GCATGGCC	-0.196
TCGTACGA	0.455
GCCTTCCC	-0.303
CGGCATTA	0.0689
ATTGGGCC	-0.0964
CCCAGCGG	-0.182
AGTGGAAC	-0.0559
CTGGGTAC	-0.097
AGCGAACC	-0.113
AGGTCACT	0.304
ACGGTAGG	-0.0731
TCCGTAGA	0.143

Sequence	PBM E-score
TAAACCTA	0.102
CAGGCTTA	-0.246
GATATAGA	0.0944
CATACGGC	0.346
AGGGCGCC	-0.0691
AAACCGTA	0.221
AATCATCC	0.215
ATTCGCTA	-0.00605
ATGATCTA	0.297
CGATAGCA	0.00986
CTCATCAA	0.192
ACGGTTGG	0.0215
CGACCCCA	-0.0475
CTCAACCA	-0.242
AGGCTAGA	-0.228
CTGTCTGC	-0.243
CCTTCTAG	-0.139
ACTAGGCT	-0.12
CACGCACC	0.0197
ACCAGTAC	-0.02
AACGCATC	-0.00058
AAAGATAG	-0.00204
CTAATGAA	0.0665
AAGTCTCA	-0.14
ACTAACAC	0.00501

Sequence	PBM E-score
AGTTAAGC	0.00046
CGCGAAAA	0.102
CTTGGAGA	-0.106
CCTAATCG	0.215
CTTTTGAA	0.0454
CAGGCCCG	-0.265
ACATACTG	0.0484
CACTCACG	-0.0286
AACGGAAA	0.218
ATAATACG	0.164
CGGTGCTC	0.0352
GTCCAGCA	-0.0732
AGTCTCGA	-0.199
CTTCTCCC	-0.177
CGGCGCTC	0.0722
TCGCGTAA	-0.0242
AGAAATCG	0.0412
GACTCATA	-0.0291
CTGATACC	0.0242
CACGAGCG	0.0546
GGACCCAC	-0.174
CAGTGTAA	0.162
GGCACAAA	-0.0041
GACAAAGA	0.168
AGCTCCGG	-0.208

Sequence	PBM E-score
CTACGACC	0.12
CACTCCTC	-0.0559
GAGGATGA	0.0128
AGACCATC	-0.195
CAGGTCTA	0.00166
AGGAGCTC	-0.229
AACCATTA	0.0146
CCGGTCTA	-0.142
ACGGAAGA	0.0695
ATACACCG	-0.118
ATATTATA	0.254
CCGTACCG	0.25
ATTTAGAA	0.138
AAGCGGCC	-0.00927
CGGCCTGA	-0.207
CTAGACCA	-0.194
CTGGTCAA	-0.112
AGGCGACT	-0.00342
CCTAAGGA	0.151
ACTTCGGA	-0.0162
AGAAAGCG	-0.038
CCCTATGC	-0.16
ATGGGTAA	-0.0977
GTGGCAAC	-0.197
CTTACTCC	-0.0554

Sequence	PBM E-score
ACTCCCCA	-0.125
AGTGTCTA	0.0728
CCGCCCCA	-0.136
CGTAATCA	0.293
ACTTACAA	0.134
AAGAGTAA	0.0442
ATTCCTCG	-0.0559
AACCGTAT	0.238
CTATAGTC	0.0309
CAACACCG	-0.157
AAGCTGAC	-0.134
CCGGCATC	-0.072
ATTGAAGG	-0.134
CCTGTGAC	-0.00317
CAAACGGC	0.0725
CCTTCGTC	0.0914
CTCCGCCC	-0.291
GCAGAGTA	0.0817
GAGTATTA	0.171
AATAGCGG	-0.183
AGCGTAGC	0.141
GAGATTGC	-0.126
AAAAGGAC	-0.128
AACCACTG	-0.111
GAGCCCGA	-0.04

Sequence	PBM E-score
ACCGCAGT	-0.12
ACCGACCC	-0.155
CCCTCTAC	-0.188
AATGATTC	0.0452
AGCCCGCA	-0.231
ACCTGAGA	-0.0303
TCGGAGCA	-0.0213
CCGAACCA	-0.231
AAATGCCG	0.0805
GTACTGAC	0.112
ACATACCT	-0.0525
GCGATTCC	0.0129
AAATTTGA	0.0283
CTTACAAG	-0.0672
AGGAGGTC	-0.127
CAGCCCAG	-0.296
AACGCTCT	-0.051
CCCCGTTA	-0.0607
AACTACGG	0.148
CGATCTTC	0.00974
AGATGGTC	-0.177
CAGAGTCA	-0.251
TATTCCCA	-0.0277
TATAGGGA	-0.0594
CGGATCCG	-0.0523

Sequence	PBM E-score
GGCCCTAA	-0.0593
CTAGTCAG	0.0253
GCCGCGGA	0.0077
AGCCGTTA	0.117
GCGGGTCA	-0.032
CGGGCAGC	-0.179
CACCCGCG	-0.134
GAGACTAA	0.056
AATGCGAC	0.0345
CACGGGAC	0.221
GCCCAAGC	-0.189
AAAACTTG	0.0211
GGTCGCCA	-0.074
GCTTGGAC	-0.128
AGTAGCGC	0.0139
GCAGCCGC	-0.166
CTAAATTA	0.0644
ATTAACCC	-0.086
ACTAGTGA	0.182
TAGAATCA	-0.0486
CGGGCCAC	-0.107
CCATCCTA	0.0483
CCCATGTC	0.126
CTCCCTTA	-0.165
TCGAAAGA	0.125

Sequence	PBM E-score
CCCAATGA	-0.00969
AAGGTGCT	-0.17
GACTAGGC	0.0619
CTAAGCAC	-0.0293
CATCACGG	0.213
ACGCGTAG	0.00468
CTCCATCC	-0.203
AACAACCA	0.161
GGTATGGA	-0.0697
AACTGACC	-0.283
CGATGTAA	0.00226
ATACAAGA	-0.0309
GGATCTAC	-0.0102
CGATATCC	0.17
AATGAGCG	0.0583
GCTTAAAA	0.0895
CATTTCCA	0.0465
ATACTGCC	0.0565
CGTATAAC	0.366
ACGGCGTC	0.205
AATTGGTG	0.0554
GCGTCCAC	-0.161
GTCAGGAA	-0.0436
CCACCTTA	-0.09
CAGTGTCC	-0.0745

Part of the list above, with bars between the fields.
Sequence | PBM E-score
TGGACACA | -0.0786
ATGAGGTG | 0.139
AAGCCAGT | -0.108
AGTCGATG | 0.0166
ACTGGAAC | -0.00138
TTTATAAA | 0.29
ATCGCTCG | 0.204
ACTACACT | 0.0328
ACGATAAC | 0.224
GAGGCAAA | -0.0198
AAGACGAG | -0.0454
CGATGATC | 0.287
ATGTCACG | 0.437
AGGGAGGC | -0.333
ACTCGCGG | 0.0316
GTGGCCAC | 0.15
AGCGTTGA | 0.104
GACGGTGC | 0.102
GAGGTTGA | -0.042
CGGTTAAA | -0.113
ACTGCATC | 0.0268
CCTAGCGA | 0.0769
ATTATAAA | 0.0931
AAGCCCCG | -0.3
AATTTGAC | 0.183
GACTCAGA | -0.145
CAGACCAC | -0.239
TACCGAGA | 0.00246
GCAGAGAC | -0.219
GAGTACGC | 0.128
TTGAGCAA | -0.199
AACCTTGG | -0.0513
CGCATTAA | 0.137
CCTCCTGC | -0.253
ACCACCGA | -0.0146
CGACAAAA | 0.241
CTGGACAA | 0.0151
CAACCCAG | -0.148
TCCAGAGA | -0.145
CCGATACC | -0.101
TCAATAAA | 0.0473
AGAGGACC | -0.254
CTTTTGGA | -0.0138
GGTTTTGA | 0.066
GGTTCAGA | -0.111
AGTGCGAT | -0.00019
TCTGCCCA | -0.0147
ACCATCTC | -0.0694
CCCTCACA | -0.144
AAAGAACT | 0.0334
GCATGGTA | -0.0541
CTTCACGA | 0.2
AGTATCGC | 0.0404
ATTCAGGA | -0.066
CCATATGA | 0.0353
ATAGAGGC | -0.063
TATTCGCA | 0.134
CGAACAAA | 0.133
GTATCGAA | 0.136
CTTTTCGA | -0.0876
ATCTCCTG | 0.197
CCCACCGC | -0.25
GACCTCAA | -0.0678
CAGCGAAG | -0.223
TCTCTAAA | 0.0546
GCGGCGCC | -0.00849
CAACCGAG | -0.0944

The listing continues.

Sequence	PBM E-score
ACGCTGAT	0.0221
AACCGGCT	-0.103
GTAAAATA	0.0529
ATAGCTTG	0.00747
ATAATAAG	0.154
TAGTAAGA	0.165
CTCGCCCC	-0.161
CAACACCC	-0.197
GTGTTGTA	0.0206
AGGCTAAC	-0.0365
CGGCGGTC	-0.0753
CCTCACTC	0.0309
GGACATAA	-0.032
AGCACCCC	-0.142
CTCCAGAA	-0.238
ACATCTAT	0.192
AACAAGTC	-0.0075
AAGACATA	0.103
CTCGGGGA	-0.165
